# Data from patent EP4260850A1, “PHARMACEUTICAL COMPOSITION COMPRISING PTEROSIN COMPOUND AND DERIVATIVE THEREOF AS ACTIVE INGREDIENT FOR PREVENTION OR TREATMENT OF PKA-RELATED DISEASE” (GHPharm Co., Ltd., priority 2020, dated 2022).
# “Also recorded” adds a separate entry of the source. Some entries share one result that the patent states for a list of compounds. At least one structure is not confirmed: it was looked up by name or label, or the drawing left a doubt.
# Key:
# NIH3T3 cells = experiment: MTT assay, cytotoxicity in normal cells; format: cell-based; conditions: result in words
# Procedure: (§1) NIH3T3 cells, as a mouse fibroblast cell line, and B16F10 cells, as a mouse melanoma cell line, were dispensed into a 96 well plate at 2×10^3 cells/well, and cultured in DMEM supplemented with 10% fetal bovine serum (FBS) at 5% CO2 and 37°C. Compounds (pterosin A, pterosin B, pterosin C, pterosin D, pterosin P, pterosin Z, pteroside A, pteroside B and pteroside Z) were treated at different concentrations and then cultured for 48 hours. Thereafter, MTT solution (5 mg/ml) was added to each well at a concentration of […] and incubated at 37°C for 4 hours. […] After incubation for 10 minutes, optical density was measured at 550 nm by using a Microplate Reader (Molecular Devices, Spectra Max, USA). An optical density is an index representing the number of surviving cells and is calculated by the formula below, and reproducibility was confirmed through three experiments. Cell proliferation rate (%) = OD550 (sample)/OD550; (control) × 100 [formula]
# (§2) As described in the experimental method, mouse embryo fibroblast cell-line (NIH3T3) as a normal cell and Mouse melanoma cell-line (B16F10) as a cancer cell were cultured in a 96-well plate, and each compound was added to the cell medium at each concentration and cultured for 48 hours, MTT was then administered, and the optical density was measured at 550 nm by using a microplate reader. The optical density is an index representing the number of surviving cells and calculated by the following formula, and reproducibility was confirmed through three experiments. Cell proliferation rate (%) = OD550 (sample)/OD550; (control) × 100 [formula]
# (§3) Then, the LD50 (Lethal Dose 50) value was calculated based on the change in cell proliferation rate.
# B16F10 cells = experiment: MTT assay, cytotoxicity in cancer cells; format: cell-based; conditions: result in words
# Procedure: as §1, §2, §3
compound,measurement,setting,value
"Cc1cc2c(c(C)c1CCO)C(=O)[C@H](C)C2 [Compound 2, (2R)-pterosin B]",cytotoxicity,NIH3T3 cells,low cytotoxicity
same,cytotoxicity,B16F10 cells,low cytotoxicity
"Cc1cc2c(c(C)c1CCO)C(=O)C(C)(C)C2 [Compound 3, pterosin Z]",cytotoxicity,NIH3T3 cells,low cytotoxicity
same,cytotoxicity,B16F10 cells,low cytotoxicity
"Cc1c(CCO)c(CO)cc2c1C(=O)[C@@H](C)C2 [Compound 4, (2S)-pterosin P]",cytotoxicity,NIH3T3 cells,low cytotoxicity
same,cytotoxicity,B16F10 cells,low cytotoxicity
"Cc1cc2c(c(C)c1CCO)C(=O)C(C)(C)[C@@H]2O [Compound 5, (3R)-pterosin D]",cytotoxicity,NIH3T3 cells,low cytotoxicity
same,cytotoxicity,B16F10 cells,low cytotoxicity
"Cc1cc2c(c(C)c1CCO)C(=O)[C@](C)(CO)C2 [Compound 6, (2S)-pterosin A]",cytotoxicity,NIH3T3 cells,low cytotoxicity
same,cytotoxicity,B16F10 cells,low cytotoxicity
"Cc1cc2c(c(C)c1CCO)C(=O)[C@H](C)[C@H]2O [Compound 7, (2R,3R)-pterosin C]",cytotoxicity,NIH3T3 cells,little cytotoxicity; also recorded: low cytotoxicity
same,cytotoxicity,B16F10 cells,little cytotoxicity; also recorded: low cytotoxicity
"Cc1cc2c(c(C)c1CCO)C(=O)[C@@H](C)[C@H]2O [Compound 8, (2S,3R)-pterosin C]",cytotoxicity,NIH3T3 cells,little cytotoxicity; also recorded: low cytotoxicity
same,cytotoxicity,B16F10 cells,little cytotoxicity; also recorded: low cytotoxicity
"Cc1cc2c(c(C)c1CCO[C@@H]1O[C@H](CO)[C@@H](O)[C@H](O)[C@H]1O)C(=O)[C@H](C)C2 [Compound 9, (2R)-pteroside B]",cytotoxicity,NIH3T3 cells,little cytotoxicity; also recorded: low cytotoxicity
same,cytotoxicity,B16F10 cells,little cytotoxicity; also recorded: low cytotoxicity
"Cc1cc2c(c(C)c1CCO[C@@H]1O[C@H](CO)[C@@H](O)[C@H](O)[C@H]1O)C(=O)C(C)(C)C2 [Compound 10, pteroside Z]",cytotoxicity,NIH3T3 cells,little cytotoxicity; also recorded: low cytotoxicity
same,cytotoxicity,B16F10 cells,little cytotoxicity; also recorded: low cytotoxicity
"Cc1cc2c(c(C)c1CCO[C@@H]1O[C@H](CO)[C@@H](O)[C@H](O)[C@H]1O)C(=O)[C@](C)(CO)C2 [Compound 11, (2S)-pteroside A]",cytotoxicity,NIH3T3 cells,little cytotoxicity; also recorded: low cytotoxicity
same,cytotoxicity,B16F10 cells,little cytotoxicity; also recorded: low cytotoxicity
